# According to PubChem BioAssay (NCATS):
# Protein sequences, listed by entry. Tags and fused reporters are not part of them. Lines headed by an entry give the natural chain unless they say otherwise; changes in a name come on top.
# UniProt P03372, whole entry, looked up: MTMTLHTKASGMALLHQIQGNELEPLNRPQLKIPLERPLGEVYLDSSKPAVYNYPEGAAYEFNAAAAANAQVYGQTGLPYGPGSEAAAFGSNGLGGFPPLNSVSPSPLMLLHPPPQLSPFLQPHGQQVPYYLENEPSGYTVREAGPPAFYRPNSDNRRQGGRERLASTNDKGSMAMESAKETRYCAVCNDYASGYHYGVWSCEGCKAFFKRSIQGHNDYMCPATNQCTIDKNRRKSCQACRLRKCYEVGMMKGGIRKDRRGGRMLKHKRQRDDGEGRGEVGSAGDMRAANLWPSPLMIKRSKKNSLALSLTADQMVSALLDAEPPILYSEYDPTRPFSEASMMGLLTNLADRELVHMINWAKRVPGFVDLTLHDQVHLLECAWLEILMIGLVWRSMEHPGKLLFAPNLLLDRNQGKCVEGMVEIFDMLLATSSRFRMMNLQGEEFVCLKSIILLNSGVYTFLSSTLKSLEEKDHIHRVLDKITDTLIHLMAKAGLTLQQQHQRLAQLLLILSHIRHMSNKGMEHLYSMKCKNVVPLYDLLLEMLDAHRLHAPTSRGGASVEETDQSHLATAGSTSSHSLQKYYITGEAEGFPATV
# UniProt Q03181: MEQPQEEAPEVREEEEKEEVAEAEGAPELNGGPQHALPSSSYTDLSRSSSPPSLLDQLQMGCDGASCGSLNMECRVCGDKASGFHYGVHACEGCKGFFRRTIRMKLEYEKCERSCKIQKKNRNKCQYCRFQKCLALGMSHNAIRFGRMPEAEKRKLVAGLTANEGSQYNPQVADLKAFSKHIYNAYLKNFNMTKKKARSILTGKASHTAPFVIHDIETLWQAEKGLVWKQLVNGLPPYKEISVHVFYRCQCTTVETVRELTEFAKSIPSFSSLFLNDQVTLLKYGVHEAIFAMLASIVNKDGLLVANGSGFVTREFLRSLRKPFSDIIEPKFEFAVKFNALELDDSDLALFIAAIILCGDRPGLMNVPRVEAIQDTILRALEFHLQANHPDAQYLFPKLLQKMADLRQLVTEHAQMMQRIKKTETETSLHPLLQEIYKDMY
# UniProt P19793: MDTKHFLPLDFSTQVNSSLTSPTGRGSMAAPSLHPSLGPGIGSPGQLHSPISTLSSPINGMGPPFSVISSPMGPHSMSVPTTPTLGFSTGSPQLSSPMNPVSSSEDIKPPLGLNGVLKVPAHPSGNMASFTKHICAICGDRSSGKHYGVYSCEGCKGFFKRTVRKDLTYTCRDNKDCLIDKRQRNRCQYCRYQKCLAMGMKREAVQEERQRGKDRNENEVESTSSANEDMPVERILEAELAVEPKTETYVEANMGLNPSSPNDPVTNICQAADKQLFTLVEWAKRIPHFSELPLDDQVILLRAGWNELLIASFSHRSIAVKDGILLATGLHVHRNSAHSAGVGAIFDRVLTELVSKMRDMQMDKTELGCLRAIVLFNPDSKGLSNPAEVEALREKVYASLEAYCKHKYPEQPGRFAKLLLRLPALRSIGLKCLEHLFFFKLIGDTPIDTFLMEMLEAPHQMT
# UniProt P37231: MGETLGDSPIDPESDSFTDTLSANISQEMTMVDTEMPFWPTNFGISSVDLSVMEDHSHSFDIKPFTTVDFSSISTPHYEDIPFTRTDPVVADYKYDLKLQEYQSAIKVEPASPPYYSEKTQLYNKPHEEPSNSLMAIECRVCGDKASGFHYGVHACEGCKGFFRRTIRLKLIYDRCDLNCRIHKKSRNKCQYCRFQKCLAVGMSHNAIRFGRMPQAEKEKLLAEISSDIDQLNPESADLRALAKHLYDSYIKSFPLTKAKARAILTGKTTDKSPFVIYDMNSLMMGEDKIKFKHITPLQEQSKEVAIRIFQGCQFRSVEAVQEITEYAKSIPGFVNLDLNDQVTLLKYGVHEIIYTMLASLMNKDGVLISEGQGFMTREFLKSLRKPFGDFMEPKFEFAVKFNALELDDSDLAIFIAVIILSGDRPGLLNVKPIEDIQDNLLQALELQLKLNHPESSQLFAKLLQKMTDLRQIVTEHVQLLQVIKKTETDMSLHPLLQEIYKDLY
# UniProt P10828: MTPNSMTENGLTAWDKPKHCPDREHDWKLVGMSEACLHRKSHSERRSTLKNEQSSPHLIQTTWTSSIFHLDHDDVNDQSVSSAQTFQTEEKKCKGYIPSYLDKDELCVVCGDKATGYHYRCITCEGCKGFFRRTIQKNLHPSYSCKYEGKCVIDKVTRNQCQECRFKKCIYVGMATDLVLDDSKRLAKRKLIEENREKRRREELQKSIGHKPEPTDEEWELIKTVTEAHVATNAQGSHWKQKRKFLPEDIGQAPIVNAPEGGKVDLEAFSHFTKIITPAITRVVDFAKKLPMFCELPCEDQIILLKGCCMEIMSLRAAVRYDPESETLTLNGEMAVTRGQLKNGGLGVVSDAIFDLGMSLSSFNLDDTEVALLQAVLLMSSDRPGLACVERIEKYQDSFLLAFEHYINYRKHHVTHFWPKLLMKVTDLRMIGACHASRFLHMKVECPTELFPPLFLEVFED
# Several values for one entry are separate records, joined by “and”; a condition that tells them apart may be missing. Equal values may be shown once. The shares of active, inactive and inconclusive entries below differ from those in the screen. For part of these data: A potency beside an inconclusive call is a rough fit, not a confirmed value. For part of these data: “Side channel” marks fits to a control or component signal instead of the main read-out. Activity calls are given as the source filed them. Unless noted, calls come from the whole dose curve; as a rule, active = well fitted curve in the direction sought with a large enough effect; inconclusive = small, poorly fitted or top-dose-only effect, or another doubt; inactive = no such curve, though single readings can be large; an effect the other way counts as inactive or inconclusive.
# Assays:
# [1] = MultiTox-Fluor Cytotoxicity Assay - LYMP1-001 - Live Cells (AID 947); note: potency is the fitted concentration of half-maximal effect
# [2] = MultiTox-Fluor Cytotoxicity Assay - LYMP1-002 - Dead Cells (AID 960); settings: LYMP1-002 lymphoblastoid cells, dead-cell protease fluorescence; cytotoxicity (dead cells): at 46.1 µM (top of the series); note: potency is the fitted concentration of half-maximal effect; nearly all actives have a fitted effect of over 60% in size
# In short: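 Cells were plated, rested 5 hr, then treated with compound dilution series for 16 hr at 37 C. After adding substrate reagent and 60 min at room temperature, dead-cell protease fluorescence gave concentration-response curves fitted by the Hill equation.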
# [3] = Cell Viability - LYMP1-003 - Assay at 40 hr (AID 964); note: % is set by controls: 0 for no effect and ±100 for the full control effect; nearly all actives have a fitted effect of over 60% in size
# In short: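 Luminescent ATP signal (CellTiter-Glo) served as the viability read-out after 40 hr compound treatment of human lymphoblastoid LYMP1-003 cells at 37 C. Decreases in ATP were fitted with the Hill equation to give AC50.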
# [4] = biological target: Estrogen receptor (Homo sapiens) (UniProt P03372); assay: qHTS assay for small molecule antagonists of estrogen receptor alpha signaling (AID 588513; active = well fitted curve in the direction sought with a large enough effect in the signal ratio, with a control signal flat, not every such curve was filed as active; inconclusive = small, poorly fitted or top-dose-only effect, or effect the other way, or a change in a side signal; inactive = no such curve, though single readings can be large or run the other way; the % refers to the signal ratio; note: % is set by controls: 0 for no effect and ±100 for the full control effect); settings: ER-alpha-UAS-bla HEK293, beta-lactamase ratio, antagonist mode; activity, negative = inhibition: at 76.9 µM (top of the series) unless noted
# In short: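 ER-alpha-UAS-bla GripTite HEK 293 cells in 2% charcoal/dextran-treated FBS medium; compounds titrated (1:2, duplicate), then stimulated with 0.5 nM 17-beta-estradiol for 18 h at 37C. CCF4 beta-lactamase fluorescence; Hill-fit IC50 and efficacy.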
# [5] = biological target: Glucocorticoid receptor (Homo sapiens) (UniProt P04150); assay: qHTS assay for small molecule agonists of glucocorticoid receptor signaling (AID 588532; active = well fitted curve in the direction sought with a large enough effect in the signal ratio, with a control signal flat; inconclusive = small, poorly fitted or top-dose-only effect, or a change in a side signal; inactive = no such curve, though single readings can be large or run the other way; the % refers to the signal ratio; note: potency is the fitted concentration of half-maximal effect;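 for activation: 100% = dexamethasone at 0.1 µM and 0% = DMSO only wells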); settings: HeLa MMTV-bla, beta-lactamase ratio, agonist, 18 h; activation: hits give high values, percent of dexamethasone control, DMSO zero
# In short: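 Stimulation of a glucocorticoid response element-driven beta-lactamase gene was measured in HeLa cells. Responses were scaled between DMSO basal and 0.1 uM dexamethasone, then fitted for half-maximal stimulation.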
# [6] = biological target: Peroxisome proliferator-activated receptor delta (Homo sapiens) (UniProt Q03181); assay: qHTS assay for small molecule agonists of peroxisome proliferator-activated receptor delta signaling (AID 588534; calls by dose curve;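 note: 0% = DMSO basal wells and 100% = positive control agonist at 10 µM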); settings: HEK293T PPARdelta-UAS-bla, beta-lactamase ratio, 18 h; activation: at 76.7 µM (top of the series)
# In short: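 Agonist-mode qHTS; reporter cells, 5 hrs 37 C pre-incubation; compound titration, 18 hrs 37 C; CCF4 dye, 2 hrs RT; fluorescence read. EC50/efficacy via Hill fit.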
# [7] = biological target: Vitamin D3 receptor (Homo sapiens) (UniProt P11473); assay: qHTS assay for small molecule agonists of vitamin D receptor signaling (AID 588543; calls by dose curve; note: potency is the fitted concentration of half-maximal effect); settings: HEK293T VDR-UAS-bla, beta-lactamase ratio, 16 h; activation: at 76.8 µM (top of the series)
# In short: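 VDR-UAS-bla HEK293T cells, 2000/well, 2% charcoal-stripped FBS; compound titration 16 h at 37 C; CCF4 beta-lactamase ratio read. Normalized to 50 nM 1-alpha,25-dihydroxyvitamin D3 (100%) and DMSO; Hill fit gives EC50, efficacy.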
# [8] = biological target: Retinoic acid receptor RXR-alpha (Homo sapiens) (UniProt P19793); assay: qHTS assay for small molecule antagonists of retinoid X receptor alpha signaling (AID 588546; active = well fitted inhibition curve with a large enough effect in the signal ratio, with a control signal flat, not every such curve was filed as active; inconclusive = small, poorly fitted or top-dose-only effect, or effect the other way, or a change in a side signal; inactive = no such curve, though single readings can be large or run the other way; the % refers to the signal ratio;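 note: cells stimulated with 9-cis-retinoic acid as agonist; % is set by controls: 0 for no effect and ±100 for the full control effect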); settings: HEK293T RXRa-UAS-bla, beta-lactamase ratio, antagonist mode
# In short: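 Beta-lactamase reporter inhibition, read as CCF4 fluorescence ratio (ex 405, em 460/530 nm) after 2 h at RT. HEK293T UAS-bla cells, 2500/well, were stimulated with 9-cis-RA at 500 or 100 nM final alongside test compound for 18 h at 37 C.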
# [9] = qHTS assay to identify small molecules that stimulate interleukin-8 (IL-8) secretion (AID 651758; active = well fitted activation curve with a large enough effect in the signal ratio; inconclusive = small, poorly fitted or top-dose-only effect, or effect the other way, or a change in a side signal; the % refers to the signal ratio; note: 0% is about no effect); settings: HTRF ratio (665/615); activation: at 92.2 µM (top of the series)
# In short: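 Quantitative HTS in THP-1 monocytic cells at 2000 cells per well, with 16 hrs compound incubation at 37 C. IL-8 in the medium was then quantified by HTRF immunoassay, read after 1-3 hrs at room temperature.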
# [10] = qHTS assay for small molecule antagonists of the retinoid-related orphan receptor gamma (ROR-gamma) signaling pathway - cell viability counter screen (AID 720652; active = well fitted curve in the direction sought with a large enough effect in the repeat runs; inconclusive = weak or mixed curves; inactive = no such curve, though single readings can be large; an effect the other way counts as inactive or inconclusive;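 note: CHO reporter cells with doxycycline-induced ROR-gamma expression; compound exposure lasted 16 hr before ATP read; % is set by controls: 0 for no effect and ±100 for the full control effect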)
# In short: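 Steps: seed CHO cells bearing TET-inducible ROR and ROR response element-luciferase; rest 5 hr at 37 C; add compound, then doxycycline; incubate 16 hr; add CellTiter-Glo and read luminescence as ATP-based viability.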
# [11] = biological target: Peroxisome proliferator-activated receptor gamma (Homo sapiens) (UniProt P37231); assay: qHTS assay for small molecule antagonists of peroxisome proliferator-activated receptor gamma signaling (AID 588537; active = well fitted inhibition curve with a large enough effect in the signal ratio, with a control signal flat, not every such curve was filed as active; inconclusive = small, poorly fitted or top-dose-only effect, or effect the other way, or a change in a side signal; the % refers to the signal ratio;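 note: reporter cells co-stimulated with 50 nM rosiglitazone agonist during compound treatment; % of control where 0% means no effect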); settings: HEK293 PPARg-UAS-bla, beta-lactamase ratio, antagonist mode; activity, negative = inhibition: at 76.8 µM (top of the series)
# In short: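 Compounds are tested as concentration series for inhibition of rosiglitazone-driven (50 nM) reporter expression in GeneBLAzer PPAR-gamma-UAS-bla HEK293 cells. After 16 h at 37 C, CCF4 substrate is added for 2 h at room temperature and blue/green fluorescence is measured.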
# [12] = biological target: Thyroid hormone receptor beta (Homo sapiens) (UniProt P10828); assay: qHTS assay for small molecule agonists of thyroid hormone receptor beta signaling (AID 588545; calls by dose curve; note: potency is the fitted concentration of half-maximal effect); settings: TR-UAS-bla GripTite HEK 293, beta-lactamase ratio, agonist mode, 18 h; activation: at 76.7 µM, percent of T3 response, DMSO as zero
# In short: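 Beta-lactamase reporter activity under TR response element control is measured in HEK 293 cells after 18 hrs compound exposure. Signal is ratiometric CCF4 fluorescence, 460/530 nm.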
# [13] = biological target: Thyroid hormone receptor beta (Homo sapiens) (UniProt P10828); assay: qHTS assay for small molecule antagonists of thyroid hormone receptor beta signaling (AID 588547; active = well fitted inhibition curve with a large enough effect in the signal ratio, with a control signal flat, not every such curve was filed as active; inconclusive = small, poorly fitted or top-dose-only effect, or effect the other way, or a change in a side signal; the % refers to the signal ratio;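 note: cells stimulated with 0.4 nM T3 agonist during compound exposure; % is set by controls: 0 for no effect and ±100 for the full control effect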); settings: TR-UAS-bla HEK293, beta-lactamase ratio, antagonist mode, 18 h
# In short: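 TR-UAS-bla GripTite HEK293 cells in 2% charcoal/dextran FBS medium were preincubated 4 h at 37 C, given compound (0.59 nM to 92 uM) plus 0.4 nM T3 (final) for 18 h, then CCF4 for 2 h at RT; Hill fit gave IC50.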
# [14] = qHTS assay for small molecule agonists of the antioxidant response element (ARE) signaling pathway (AID 651741; active = well fitted activation curve with a large enough effect in the signal ratio; inconclusive = small, poorly fitted or top-dose-only effect, or effect the other way, or a change in a side signal; the % refers to the signal ratio; note: potency is the fitted concentration of half-maximal effect; for activation: % of control where 0% means no effect); settings: HepG2 ARE-bla reporter, beta-lactamase FRET ratio, 16 h; activation: at 96 µM (top of the series) unless noted
# In short: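 Reporter: beta-lactamase under ARE, stably in HepG2. Exposure: 16 h, 37 C, compounds delivered in DMSO by pin tool after 5 h cell preincubation. Readout: FRET substrate fluorescence after 2 h at RT.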
# [15] = qHTS assay for small molecule activators of the p53 signaling pathway (AID 651743; active = well fitted activation curve with a large enough effect in the signal ratio, not every such curve was filed as active; inconclusive = small, poorly fitted or top-dose-only effect, or a change in a side signal; the % refers to the signal ratio; note: potency is the fitted concentration of half-maximal effect); settings: HCT-116 p53RE-bla, beta-lactamase FRET ratio, 16 h; activation: hits give high values
# In short: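 Agonist-mode quantitative HTS in HCT-116 cells carrying a p53-response-element beta-lactamase reporter; 16 h compound treatment at 37 C, then FRET substrate loading for 2 h at room temperature and fluorescence read.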
# [16] = qHTS assay for cell viability of HEK293 cells (AID 743288); settings: ATP luminescence (CellTiter-Glo), 18 h; max response: hits give low values; note: % is set by controls: 0 for no effect and ±100 for the full control effect; nearly all actives have a fitted effect of over 50% in size
# In short: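 Steps: plate 2,000 parental HEK293 cells per well; incubate ≥5 h, 37 C; add compounds in DMSO; incubate 18 h, 37 C; add CellTiter-Glo; wait 30 min at room temperature; read luminescence.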
# [17] = biological target: Glucocorticoid receptor (Homo sapiens) (UniProt P04150); assay: qHTS assay for small molecule antagonists of glucocorticoid receptor signaling (AID 588533; active = well fitted inhibition curve with a large enough effect in the signal ratio, with a control signal flat, not every such curve was filed as active; inconclusive = small, poorly fitted or top-dose-only effect, or effect the other way, or a change in a side signal; the % refers to the signal ratio); settings: HeLa MMTV-bla, GRE beta-lactamase ratio, antagonist mode, 18 h; activity change, negative = inhibition: at 76.8 µM (top of the series) unless noted
smiles,measurement,setting,value
Cc1ccc2c(C)cccc2c1,Potency,[1],"inconclusive: 50.1 µM [cytotoxic, partial curve, poor fit]"
same,Potency,[2],"inconclusive: 31.6 µM [cytotoxic, single point]"
same,Potency,[3],inactive
same,Potency,[4],inactive
same,activation,[5],inactive: -2.73%
same,Potency,[6],inactive
same,Potency,[7],"inconclusive: 50.1 µM [side channel, rising, single point]"
same,max response,[8],inactive: 4.66%
same,Potency,[9],inactive
same,Potency,[10],inactive
Nc1nc(N)nc(Cl)n1,"activity, negative = inhibition",[4],inconclusive: -17% [at 2.03 mM]
same,Potency,[5],"inconclusive: 0.0178 µM [side channel, falling, full curve, poor fit]"
same,Potency,[11],inactive
same,Potency,[12],"inconclusive: 5.62 µM [side channel, falling, partial curve, poor fit]"
same,activity change % (negative = inhibition),[13],inactive: -10% and inactive: 5.94% and inactive: 4.29%
same,Potency,[14],"inconclusive: 891 µM [inhibitor, partial curve, poor fit]"
same,Potency,[15],"inconclusive: 22.4 µM [side channel, falling, partial curve, poor fit]"
same,max response,[16],inactive: -6.86% and inactive: -11.8% and inactive: -2.3%
CC(C)=CC1[C@H](C(=O)OCc2cccc(Oc3ccccc3)c2)C1(C)C (stereo partly specified),"activity, negative = inhibition",[4],inconclusive: -30%
same,Potency,[17],inactive
same,activation,[14],inconclusive: 4.76%

# Rewritten with bars between the fields: entries from further up
smiles | measurement | setting | value
Nc1nc(N)nc(Cl)n1 | Potency | [14] | inconclusive: 891 µM [inhibitor, partial curve, poor fit]
same | Potency | [15] | inconclusive: 22.4 µM [side channel, falling, partial curve, poor fit]
